Data from PMC3614988.
No constants are given. Whether binding was seen depends on the method and setting. Binding seen in cells or lysates may run through a third protein.

Target: T1, Rai14 (retinoic acid induced protein 14) (rat (endogenous in testis)) (UniProt Q5U312)
T1 sequence: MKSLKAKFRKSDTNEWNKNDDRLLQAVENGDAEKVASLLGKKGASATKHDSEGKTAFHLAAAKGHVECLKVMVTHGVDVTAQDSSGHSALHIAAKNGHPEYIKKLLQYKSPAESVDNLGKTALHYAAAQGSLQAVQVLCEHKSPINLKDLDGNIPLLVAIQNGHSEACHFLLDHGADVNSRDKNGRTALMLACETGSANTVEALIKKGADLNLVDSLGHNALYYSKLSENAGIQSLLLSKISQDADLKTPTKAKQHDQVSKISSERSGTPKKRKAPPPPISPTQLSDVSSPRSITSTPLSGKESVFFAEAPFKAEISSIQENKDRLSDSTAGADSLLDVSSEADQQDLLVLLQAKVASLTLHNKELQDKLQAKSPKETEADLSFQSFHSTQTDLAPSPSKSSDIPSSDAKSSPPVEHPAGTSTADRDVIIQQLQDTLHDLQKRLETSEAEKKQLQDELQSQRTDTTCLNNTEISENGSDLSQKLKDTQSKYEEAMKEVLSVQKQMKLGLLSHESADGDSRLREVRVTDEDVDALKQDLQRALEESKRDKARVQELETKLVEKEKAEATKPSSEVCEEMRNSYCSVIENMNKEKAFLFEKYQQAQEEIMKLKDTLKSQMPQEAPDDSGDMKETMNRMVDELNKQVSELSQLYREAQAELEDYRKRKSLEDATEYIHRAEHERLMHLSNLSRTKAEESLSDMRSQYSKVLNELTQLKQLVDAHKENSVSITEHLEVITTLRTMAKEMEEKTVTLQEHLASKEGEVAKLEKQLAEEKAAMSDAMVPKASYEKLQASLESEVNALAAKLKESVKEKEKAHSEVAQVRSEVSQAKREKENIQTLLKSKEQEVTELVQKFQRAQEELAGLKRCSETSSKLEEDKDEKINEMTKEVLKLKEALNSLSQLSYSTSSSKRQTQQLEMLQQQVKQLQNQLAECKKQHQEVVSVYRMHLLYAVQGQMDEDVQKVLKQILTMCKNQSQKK
Test: co-IP; anti-Rai14 IgG (2 µg) as precipitating antibody, immunoblot for the partner; rat testis lysate (for Figure 1D the lysate is not named in the legend); untreated rats

**Q.** For drebrin E (rat (endogenous in testis)), which binding is on record?
**A.** Its binding is “no binding”.
